Values from PubChem BioAssay AID1259424 (University of Nebraska Medical Center, 2018).
Aim: 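Rank knockdowns across the genome by resemblance to the KSR1 depletion profile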 (primary screen). Cell system: human HCT116 colon cancer cells. Reagent: siRNA pool against human genes, 50 nM. Detection: 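Six signature mRNAs by branched-DNA multiplex assay, scaled to two housekeeping genes and non-targeting median, log2; matched to mean KSR1 knockdown profile by Pearson correlation and euclidean distance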. Reading the numbers: mean correlation with KSR1 profile: higher = expression change more like KSR1 knockdown.
Here is an unselected part of about 14,000 reagents tested. 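Higher correlation or smaller distance means closer resemblance to KSR1 loss; control wells, including KSR1 knockdowns, recur on many plates.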 Further read-outs or replicates are left out here. Not stated in the record: the time to read-out.

CEP72 scored mean correlation with KSR1 profile 0.109. Silencing of OGDH came out at: mean correlation with KSR1 profile 0.296. After knock-down of CCL15 the results were mean correlation with KSR1 profile 0.0329. With knock-down of STX16, the record shows mean correlation with KSR1 profile -0.0199. After knock-down of GSTM2, the screen gave mean correlation with KSR1 profile 0.0556. PXK scored mean correlation with KSR1 profile 0.188.

With knock-down of PTPN2 the results were mean correlation with KSR1 profile 0.346. For MS4A6A, the entry reads mean correlation with KSR1 profile -0.0288. For PTPN13, the entry reads mean correlation with KSR1 profile -0.71. Depletion of AP4E1 came out at: mean correlation with KSR1 profile 0.382. Depletion of WDR13 resulted in: mean correlation with KSR1 profile 0.165. CREBL2 showed mean correlation with KSR1 profile -0.0813.

With knock-down of CYBC1 the results were mean correlation with KSR1 profile 0.323.

Copied from the listing (4 entries):
STX16: mean correlation with KSR1 profile = -0.0199
GSTM2: mean correlation with KSR1 profile = 0.0556
PXK: mean correlation with KSR1 profile = 0.188
PTPN2: mean correlation with KSR1 profile = 0.346

Further reagents follow.
For PCDHB16, the values are mean correlation with KSR1 profile -0.316. After knock-down of CCDC22, the record shows mean correlation with KSR1 profile -0.015. GNA15 gave mean correlation with KSR1 profile 0.622. Silencing of CDHR2 resulted in: mean correlation with KSR1 profile -0.314. Knock-down of ADAM18 came out at: mean correlation with KSR1 profile -0.118. Against DHX16, the entry reads mean correlation with KSR1 profile -0.357.

Silencing of ZEB1 came out at: mean correlation with KSR1 profile -0.375. For PCDHB1, the values are mean correlation with KSR1 profile 0.312. Against HMGCS1 the deposit lists mean correlation with KSR1 profile 0.0646. Against HSF2, the entry reads mean correlation with KSR1 profile -0.354. Against MYT1 the deposit lists mean correlation with KSR1 profile 0.191. Against GGT3P, the values are mean correlation with KSR1 profile 0.432.

Depletion of CYP4F8 gave: mean correlation with KSR1 profile -0.266. With knock-down of ENPP5, the record shows mean correlation with KSR1 profile -0.273. Knock-down of PMCHL2 gave: mean correlation with KSR1 profile 0.0442. CAPS scored mean correlation with KSR1 profile 0.289. After knock-down of OR2H2 the results were mean correlation with KSR1 profile 0.487. After knock-down of GALK1, the record shows mean correlation with KSR1 profile 0.104.

For PAM16, the entry reads mean correlation with KSR1 profile -0.518. Knock-down of SGK1 resulted in: mean correlation with KSR1 profile 0.188. TCEAL1 scored mean correlation with KSR1 profile -0.366. UQCRC1 showed mean correlation with KSR1 profile -0.352. After knock-down of MRPL15, the record shows mean correlation with KSR1 profile -0.527.
